Results deposited as PubChem BioAssay AID504774 (Drosophila RNAi Screening Center, 2011)

Assay: 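Genes required for cells to withstand methyl methanesulphonate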 (primary screen)
Cells: Drosophila Kc167 cells
Knock-down reagent: long dsRNA against Drosophila genes, about 0.25 µg dsRNA per well
Timing: about 6 days: 3 days knock-down, then 3 days with or without MMS
Conditions: methyl methanesulphonate 0.004% (w/v) for 3 days after knock-down
Measured: 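ATP-dependent luminescence as a measure of live cells in MMS-exposed wells, quantile normalised within each plate, with replicate values also given as a mean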
Scale: mean viability with MMS and viability with MMS: higher = more surviving cells after MMS
The screen tested about 23,000 reagents; below is a random part of those that have a named target and a result. 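Values are quantile-normalised luminescence on an arbitrary scale; higher means more cells surviving MMS.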 Not all columns of the deposit are shown.

msk (moleskin) [DRSC11340]: mean viability with MMS = 3.51e6; viability with MMS, replicate 1 = 3.97e6
lva (lava lamp) [DRSC18403]: mean viability with MMS = 3.34e6; viability with MMS, replicate 1 = 3.74e6
muskelin [DRSC07273]: mean viability with MMS = 3.48e6; viability with MMS, replicate 1 = 3.91e6
CG8209 [DRSC10970]: mean viability with MMS = 3.49e6; viability with MMS, replicate 1 = 3.93e6
CG9775 [DRSC12330]: mean viability with MMS = 3.48e6; viability with MMS, replicate 1 = 3.91e6
CG9775 [DRSC22667]: mean viability with MMS = 3.42e6; viability with MMS, replicate 1 = 3.83e6
CG8907 [DRSC16453]: mean viability with MMS = 3.75e6; viability with MMS, replicate 1 = 4.09e6
TyrRS (Tyrosyl-tRNA synthetase) [DRSC10430]: mean viability with MMS = 3.38e6; viability with MMS, replicate 1 = 3.84e6
Iml1 (Increased minichromosome loss 1) [DRSC08249]: mean viability with MMS = 3.70e6; viability with MMS, replicate 1 = 4.06e6
AstC-R2 (Allatostatin C receptor 2) [DRSC10051]: mean viability with MMS = 3.51e6; viability with MMS, replicate 1 = 3.94e6
Cyp4ac1 (Cytochrome P450 4ac1) [DRSC03302]: mean viability with MMS = 3.68e6; viability with MMS, replicate 1 = 4.16e6
por (porcupine) [DRSC20362]: mean viability with MMS = 3.49e6; viability with MMS, replicate 1 = 3.94e6
ndl (nudel) [DRSC11374]: mean viability with MMS = 3.52e6; viability with MMS, replicate 1 = 4.12e6
CG16782 [DRSC18118]: mean viability with MMS = 3.46e6; viability with MMS, replicate 1 = 3.86e6
dpr15 (defective proboscis extension response 15) [DRSC12891]: mean viability with MMS = 3.52e6; viability with MMS, replicate 1 = 4.09e6
dpr15 (defective proboscis extension response 15) [DRSC14187]: mean viability with MMS = 3.27e6; viability with MMS, replicate 1 = 3.75e6
dpr15 (defective proboscis extension response 15) [DRSC14188]: mean viability with MMS = 3.47e6; viability with MMS, replicate 1 = 3.87e6
polybromo [DRSC14307]: mean viability with MMS = 3.57e6; viability with MMS, replicate 1 = 4.07e6
CG11854 [DRSC14409]: mean viability with MMS = 3.46e6; viability with MMS, replicate 1 = 3.91e6
Sps1 (Selenophosphate synthetase 1) [DRSC07549]: mean viability with MMS = 3.29e6; viability with MMS, replicate 1 = 3.71e6
CG14708 [DRSC14930]: mean viability with MMS = 3.67e6; viability with MMS, replicate 1 = 4.12e6
CG17378 [DRSC02616]: mean viability with MMS = 3.59e6; viability with MMS, replicate 1 = 4.07e6
park (parkin) [DRSC11618]: mean viability with MMS = 3.47e6; viability with MMS, replicate 1 = 3.89e6
Ddx1 (Dead-box-1) [DRSC11862]: mean viability with MMS = 3.55e6; viability with MMS, replicate 1 = 4.07e6

2 entries from above in another layout:
{"Gene":"park (parkin)","DRSC id":"DRSC11618","mean viability with MMS":3.47e6,"viability with MMS, replicate 1":3.89e6}
{"Gene":"Ddx1 (Dead-box-1)","DRSC id":"DRSC11862","mean viability with MMS":3.55e6,"viability with MMS, replicate 1":4.07e6}
